Experimental data taken from PubChem BioAssay AID493014 (National Center for Advancing Translational Sciences (NCATS), 2011).
Screen size: about 340,000 compounds; about 170 (0.05%) were called active. Inconclusive results, whose numbers are uncertain, are shown with a selection of clear calls. The call rests on the fitted dose curve; in most records, active means well fitted inhibition curve with a large enough effect in the signal ratio, with a control signal flat (not every such curve was filed as active); inconclusive means small, poorly fitted or top-dose-only effect, or effect the other way, or a change in a side signal; inactive means flat fitted curve, though single readings scatter; the % refers to the signal ratio. Potencies beside an inconclusive call are fits to weak or partial responses and may not hold up.

Assay: qHTS Assay to Find Inhibitors of Chronic Active B-Cell Receptor Signaling;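 on activity change, negative = inhibition: plate controls were basal doxycycline-induced cells for no effect and cells given 10 µM MG132 for full effect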
Details: ABC-DLBCL IkBa-CBG/CBR reporter, luminescence ratio (green luciferase fused to IkBa over red control in TMD8 lymphoma cells), 4 h; activity change, negative = inhibition: at 46.1 µM (top of the series) unless noted
Outline: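 TMD8 human ABC-DLBCL cells with doxycycline-inducible IκBα–green luciferase fusion and unfused red luciferase, in 0.5% FBS medium; compounds up to 46 uM, 4 h at 37C. Green/red luminescence ratio, filter-overlap corrected, fitted to concentration-response curves.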
Potency means the concentration at half of the fitted maximal effect.

Structure (SMILES) | activity change, negative = inhibition | Potency
COc1ccc(NS(=O)(=O)c2ccc(N3CCOCC3)c(NC(=O)c3ccc(F)cc3)c2)cc1 | inactive: -9.11% | 
O=C(O)CCN1CCc2ccccc2C1c1ccncc1 (configuration not stated) | inactive: 1.84% | 
O=C1CSC2(C(=O)N(Cc3ccccc3)c3ccccc32)N1c1ccc(Cl)cc1 (configuration not stated) |  | inconclusive: 20 µM [falling, partial curve, poor fit]
CCOc1cc(S(=O)(=O)N(CC)CC)ccc1Br | inconclusive: -0.0139% | 
Cc1cccn2cc(-c3cccc(S(=O)(=O)N4CCOCC4)c3)nc12 | inconclusive: -1.15% | 
O=C1N/C(=N/S(=O)(=O)Cc2ccccc2)S/C1=C/c1ccc2c(c1)OCO2 |  | inconclusive: 25.1 µM [falling, single point]
COc1cccc(CNC(=O)C(=O)NCC2CCCO2)c1 (configuration not stated) |  | inconclusive: 23.1 µM [falling, partial curve]
Cc1cccc(-c2nsc(SCC(=O)N3CCCC3)n2)c1 | inconclusive: 7.49% | 
NS(=O)(=O)c1ccc(CCNC(c2ccccc2)c2ccccc2)cc1 | inconclusive: 6.81% | 
COc1cc(OC)c(NC(=O)CN(C)S(=O)(=O)c2ccc3[nH]c(=O)oc3c2)cc1Cl | inconclusive: 0.778% | 
CSCCC(NC(=O)c1ccccc1)C(=O)N1CC(C)OC(C)C1 (configuration not stated) | inconclusive: 7.98% | 
N#Cc1cn(-c2ccccc2)nc1-c1ccco1 | inactive: 4.88% | 
C[C@@]12CCC=C[C@H]1[C@H](c1ccc3ccccc3c1/C=C/c1ccccc1)N(Cc1ccccc1)C2=O | inconclusive: 2.84% | 
COc1ccc(S(=O)(=O)N2CCOCC2)cc1NC(=O)COC(=O)CCOc1ccc(C)cc1 | inactive: 14.6% | 
O=C(/C=C\c1ccccc1)Nc1ccc(NC(=O)c2ccco2)cc1 | inactive: 2.46% | 
FC(F)(F)c1cccc(N2CCN(C(=S)NCC3CCCO3)CC2)c1 (configuration not stated) | inactive: 4.51% | 
CC(C)(C)NC(=O)/C=C/c1ccc(C(F)(F)F)cc1 | inconclusive: 8.06% | 
O=C(NCC1CCCO1)c1c[nH]c2ccc(S(=O)(=O)Nc3cccc(C(F)(F)F)c3)cc2c1=O (configuration not stated) | inactive: -0.67% | 
N#C/C(=C(/O)CSc1ccccn1)c1nc2ccccc2s1 |  | inconclusive: 3.55 µM [falling, partial curve]
COc1cc(C(=O)OCCNC(=O)c2ccncc2)cc(OC)c1OC | inconclusive: -23.4% | 
CC(C)(C)CC(=O)NC1CC(=O)N(c2ccc3c(c2)OCCO3)C1 (configuration not stated) | inactive: -12.4% | 

One compound at a time (already shown).
O=C(O)CCN1CCc2ccccc2C1c1ccncc1 (configuration not stated) in the list: activity change, negative = inhibition: inactive: 1.84%
O=C1N/C(=N/S(=O)(=O)Cc2ccccc2)S/C1=C/c1ccc2c(c1)OCO2 in the list: Potency: inconclusive: 25.1 µM [falling, single point]
N#Cc1cn(-c2ccccc2)nc1-c1ccco1 in the list: activity change, negative = inhibition: inactive: 4.88%

Additional records

Structure (SMILES) | activity change, negative = inhibition | Potency
Cc1cccc(N2C(=O)CC(Sc3nnc(C)s3)C2=O)c1 (configuration not stated) |  | inconclusive: 0.13 µM [rising, full curve, poor fit]
O=C(C(Cc1ccccc1)n1cccc1)N1CCN(c2ccccc2)CC1 (configuration not stated) | inconclusive: -7.01% | 
CCCOc1ccc(-c2nnc(-c3ccncc3)o2)cc1 | inconclusive: 5.37% | 
CC(=O)c1ccc(-n2nnnc2SCC(=O)Nc2cccc(NC(=O)c3ccco3)c2)cc1 |  | inconclusive: 2.82 µM [falling, full curve]
CCCCCCCCOC(=O)c1ccc(N)cc1 | inconclusive: 11.8% | 
Cc1ccc(C(=O)N/C(=C\c2ccc3c(c2)OCO3)C(=O)Nc2ccc(C(=O)O)cc2)cc1 | inconclusive: 4.25% | 
S=c1[nH]nc(Cc2ccccc2)n1-c1ccc(Cl)cc1 | inconclusive: -0.908% | 
CCOc1ccccc1N1CCN(C(=S)NCc2ccco2)CC1 |  | inconclusive: 29.1 µM [falling, single point]
CCC(C(=O)NCCCN(CC)Cc1ccccc1)n1nc(C)c2sc3ccccc3c2c1=O (configuration not stated) | inconclusive: -16.1% | 
O=C(c1cc(-c2ccc3c(c2)OCO3)on1)N1CCCCC1 | inconclusive: 270% | 
Cc1ccc(S(=O)(=O)Nc2ccc(S(=O)(=O)NC(C)(C)C)cc2)cc1 | inconclusive: -0.7% | 
COc1cc(OC)c(C2N(c3ccc(Cl)cc3)C(=O)C3CCCN32)cc1OC (configuration not stated) | inconclusive: 10.4% | 
O=C(NCc1nnnn1-c1ccc(F)cc1)C1CC(=O)N(c2ccc(F)cc2)C1 (configuration not stated) |  | inconclusive: 29.1 µM [falling, single point]
CC(C)(C)OC(=O)NCCCCCNC(=O)c1[nH]cnc1C(=O)N[C@@H](CCCCNC(=O)OC(C)(C)C)C(=O)OC(C)(C)C | inactive: -1.7% | 
COCCNC(=S)Nc1ccccc1Cc1ccccc1 | inactive: -0.105% | 
Cc1ccccc1C(=O)NC1CC2CCCC(C1)N2Cc1ccc(Cl)cc1 (configuration not stated) | inactive: 9.65% | 
Cc1ccc(N=Nc2c(N)nn(-c3ccccc3)c2N)cc1 |  | inconclusive: 16.4 µM [falling, partial curve]
Cc1ccc(OCC(=O)NCc2cccs2)cc1 | inconclusive: -12% | 
Cc1ccc(/C([O-])=C(/C(=S)NCc2ccco2)[n+]2ccccc2)cc1[N+](=O)[O-] | inconclusive: 4.06% | 
Cn1ncc2c(Nc3cccc(F)c3)ncnc21 |  | inconclusive: 6.31 µM [falling, single point]
Cc1ccc(-c2[nH]c(=S)[nH]c(=O)c2C#N)cc1 | inactive: 4.84% | 
